# Data from PubChem BioAssay AID540276 (National Center for Advancing Translational Sciences (NCATS), 2011).
# Out of some 300,000 compounds screened, about 5,400 (1.8%) were called active. Inconclusive results, whose numbers are uncertain, are shown with a selection of clear calls. The call rests on the fitted dose curve; tested in HEK293 cells. A potency beside an inconclusive call is a rough fit, not a confirmed value. More than one record can exist for a structure, and the calls need not agree.
# Assay: qHTS for inhibitors of binding or entry into cells for Marburg Virus
# Conditions: Marburg virus pseudotyped entry inhibition, cell reporter; series mostly up to 37.8 µM
# Potency means the concentration at half of the fitted maximal effect.
row,SMILES,Potency
1,Cc1cc(C(=O)NNc2ccc(Cl)cc2)no1,active: 4.47 µM
2,CCN(CC)CCn1c2c(c(SCC(=O)Nc3ccc4c(c3)OCCO4)nc1=O)CCC2,inactive
3,CCOC(=O)N1CCN(c2nc(-c3cccc(OC)c3)cc(C(F)(F)F)n2)CC1,"inconclusive: 29.1 µM [inhibitor, single point]"
4,Cc1ccc[n+](-c2[nH]c(=O)sc2/C=N/NC(=O)c2ccccc2[O-])c1,"inconclusive: 15.8 µM [inhibitor, single point]"
5,CN1CCN(c2ccc3ccccc3n2)CC1,inactive
6,O=C(Cn1c(NCCO)nc2ccccc21)c1ccc(Cl)cc1Cl,"inconclusive: 35.5 µM [inhibitor, partial curve, poor fit]"
7,Cc1[nH]c(=O)c(C#N)c(C)c1Br,inactive
8,Cc1ccc(NCN2C(=O)C3C4C=CC(C4)C3C2=O)cc1 (stereo unspecified),"inconclusive: 2.82 µM [inhibitor, full curve, poor fit]"
10,Cc1c(NC(=O)OCCNC(=O)Nc2ccccc2)sc(=S)n1C,inactive
11,Cc1cccn2cc(-c3cccc(NS(=O)(=O)c4ccc(Cl)c(Cl)c4)c3)nc12,inactive
12,CCc1ccc2occ(CC(=O)Nc3c(C(=O)Nc4ccc(OC)cc4)oc4ccccc34)c2c1,inactive
13,CN1Cc2sc(NC(=S)NC(=O)c3ccccc3)c(C#N)c2CC1(C)C,"inconclusive: 17.8 µM [inhibitor, partial curve, poor fit]"
14,COc1ccc(C(C(=O)NC2CCCC2)N(Cc2cccnc2)C(=O)Cc2cccs2)c(OC)c1 (stereo unspecified),"inconclusive: 0.562 µM [inhibitor, full curve, poor fit]"
15,Cc1ccc(Cn2c(O)c(N=O)c3ccccc32)cc1,inactive
16,O=C(Cc1ccc(Br)cc1)OCC(=O)c1ccc2c(c1)OCCO2,"inconclusive: 2.51 µM [activator, single point]"
17,Fc1ccc(C(c2nnnn2Cc2cccs2)N2CCN(C3CCCC3)CC2)cc1 (stereo unspecified),"inconclusive: 0.126 µM [inhibitor, full curve, poor fit]"
18,COc1ccc(OCC(O)Cn2c(Nc3ccccc3)nc3c2c(=O)n(C)c(=O)n3C)cc1 (stereo unspecified),"inconclusive: 14.1 µM [inhibitor, partial curve, poor fit]"
19,Cn1cnnc1SCCC(=O)Nc1ccccc1,"inconclusive: 29.1 µM [activator, single point]"
20,c1cnc(N2CCN(c3nc4ccccc4n4cnnc34)CC2)nc1,inactive
21,COc1ccc(C(O)(C2CCCCC2)C(CN2CCCC2)c2ccccc2)cc1 (stereo unspecified),active: 8.91 µM

# Copied from above, compounds 11 to 12
row,SMILES,Potency
11,Cc1cccn2cc(-c3cccc(NS(=O)(=O)c4ccc(Cl)c(Cl)c4)c3)nc12,inactive
12,CCc1ccc2occ(CC(=O)Nc3c(C(=O)Nc4ccc(OC)cc4)oc4ccccc34)c2c1,inactive
